Results reported in patent US11230581B2, “Peptides and combination of peptides for use in immunotherapy against ovarian cancer and other cancers” (Immatics Biotechnologies GmbH, priority 2015, dated 2022).

Key:
[1] = system: additional tumor types; test: LC-MS detection and over-presentation of the peptides on additional tumor types, cell lines and primary cultures; parameters: species or system human; settings: for Other relevant organs/ cancerous diseases: Table 4A: additional tumor types on which the peptide was found, over-presented on more than 5% of measured tumor samples, or presented on more than 5% with ratio of geometric means tumor vs normal tissues larger than 3; for Additional organs/cancerous diseases: additional tumor types with over-presentation on more than 5% of the measured tumor samples, or presentation on more than 5% with ratio of geometric means tumor vs normal tissues larger than 3
[2] = system: ovarian cancer samples; test: Relative LC-MS quantitation of HLA-presented peptides: presentation and over-presentation on ovarian cancer vs a panel of normal tissues (presentation score); parameters: species or system human; key: +++: very highly over-presented on tumors compared to a panel of normal tissues; ++: highly over-presented on tumors compared to a panel of normal tissues; +: over-presented on tumors compared to a panel of normal tissues; settings: over-presentation on tumors compared to a panel of normal tissues

Substance	Other relevant organs/ cancerous diseases [1]	Peptide Presentation (presentation score) [2]	Additional organs/cancerous diseases [1]
216 (NLWEDPYYL; listed as Homo sapiens) [compound 216]	SCLC, PrC, BrCa, Urinary bladder Cancer	+++	
217 (ALIHPVSTV; listed as Homo sapiens) [compound 217]	NSCLC, RCC, HCC, Melanoma, Esophageal Cancer	+++	Urinary Bladder Cancer BRCA, Urinary Bladder Cancer, Uterine Cancer, Gallbladder Cancer and Bile Duct Cancer
218 (SALEELVNV; listed as Homo sapiens) [compound 218]	RCC	+++	
222 (NLIENVQRL; listed as Homo sapiens) [compound 222]	NSCLC, RCC, CRC, HCC, Melanoma, Esophageal Cancer, Urinary bladder Cancer	++	
224 (TLIDAQWVL; listed as Homo sapiens) [compound 224]		+++	HNSCC
226 (MLYVVPIYL; listed as Homo sapiens) [compound 226]	BrCa	+++	SCLC, Melanoma, AML, NHL
227 (ALMNTLLYL; listed as Homo sapiens) [compound 227]		+++	Uterine Cancer, AML, HNSCC
228 (AMQEYIAVV; listed as Homo sapiens) [compound 228]	NSCLC, SCLC, Uterine Cancer, Gallbladder Cancer, Bile Duct Cancer	+	PC, Melanoma, HNSCC
229 (RLPGPLGTV; listed as Homo sapiens) [compound 229]	HCC, Esophageal Cancer, Endometrium	++	BRCA, Melanoma, Gallbladder Cancer and Bile Duct Cancer
233 (VLSETLYEL; listed as Homo sapiens) [compound 233]	SCLC, Endometrium	++	BRCA, HNSCC
234 (ALMEDTGRQML; listed as Homo sapiens) [compound 234]	NSCLC, SCLC, HCC, Esophageal Cancer	+++	Brain Cancer, Urinary Bladder Cancer, Gallbladder Cancer and Bile Duct Cancer, HNSCC
236 (GLLEAKVSL; listed as Homo sapiens) [compound 236]		+++	Gallbladder Cancer and Bile Duct Cancer
237 (ALLEASGTLLL; listed as Homo sapiens) [compound 237]	SCLC, HCC, PrC, Leukemia, Uterine Cancer, Gallbladder Cancer, Bile Duct Cancer	+++	BRCA, AML
238 (YLISFQTHI; listed as Homo sapiens) [compound 238]		+++	CLL
240 (ILLEQAFYL; listed as Homo sapiens) [compound 240]	SCLC	+++	
241 (SLVEVNPAYSV; listed as Homo sapiens) [compound 241]	Prostate, Gallbladder, Bile duct	+++	
242 (AIAYILQGV; listed as Homo sapiens) [compound 242]	SCLC, Leukemia, BrCa, Esophageal Cancer, Urinary bladder Cancer	+++	RCC, CRC, CLL, Melanoma, Uterine Cancer, AML, NHL, HNSCC
243 (LLLNELPSV; listed as Homo sapiens) [compound 243]	Colon, Rectum, Esophageal Cancer	++	SCLC, BRCA, Melanoma, Urinary Bladder Cancer, Gallbladder Cancer and Bile Duct Cancer, AML, HNSCC
244 (SLFGGTEITI; listed as Homo sapiens) [compound 244]		+++	Uterine Cancer

Substance	Other relevant organs/ cancerous diseases [1]	Peptide Presentation (presentation score) [2]	Additional organs/cancerous diseases [1]
246 (LLWEVVSQL; listed as Homo sapiens) [compound 246]		+++	BRCA
247 (VLLPNDLLEKV; listed as Homo sapiens) [compound 247]	Brain Cancer	+++	Melanoma
248 (FLFPNQYVDV; listed as Homo sapiens) [compound 248]	NSCLC, SCLC, HCC, Leukemia, Melanoma	+	CLL, BRCA
249 (LLDGFLVNV; listed as Homo sapiens) [compound 249]	SCLC	+++	CLL, Melanoma, NHL
251 (ALYTGFSILV; listed as Homo sapiens) [compound 251]	SCLC, Leukemia, Melanoma	+++	
252 (LLIGTDVSL; listed as Homo sapiens) [compound 252]	PrC, Leukemia, Esophageal Cancer, Urinary bladder Cancer	+++	CLL, NHL
253 (GLDAATATV; listed as Homo sapiens) [compound 253]	Prostate, Leukemia	+++	
255 (VLASYNLTV; listed as Homo sapiens) [compound 255]	BrCa	+++	
256 (FLPPEHTIVYI; listed as Homo sapiens) [compound 256]	SCLC, HCC, Leukemia, Melanoma	+++	CLL, Uterine Cancer
257 (SIFSAFLSV; listed as Homo sapiens) [compound 257]	Stomach, Urinary bladder Cancer	+++	Melanoma, Gallbladder Cancer and Bile Duct Cancer, AML, NHL
259 (TLMRQLQQV; listed as Homo sapiens) [compound 259]		++	Uterine Cancer
261 (YVLEFLEEI; listed as Homo sapiens) [compound 261]		+	RCC, CLL, BRCA
263 (LLVSNLDFGV; listed as Homo sapiens) [compound 263]	NSCLC, SCLC, RCC, Leukemia	+++	CRC, CLL, Urinary Bladder Cancer, AML, NHL
267 (ALQDFLLSV; listed as Homo sapiens) [compound 267]	HCC, Esophageal Cancer, Endometrium	+++	NSCLC, SCLC, CRC, BRCA, Melanoma, Urinary Bladder Cancer, AML, NHL, HNSCC
271 (LVYPLELYPA; listed as Homo sapiens) [compound 271]	RCC, HCC, Leukemia, BrCa, Esophageal Cancer, Urinary bladder Cancer	++	Gallbladder Cancer and Bile Duct Cancer
274 (SLLFSLFEA; listed as Homo sapiens) [compound 274]		+	Urinary Bladder Cancer, AML, NHL
275 (YLVYILNEL; listed as Homo sapiens) [compound 275]	RCC, GC, HCC, PC, Leukemia, Esophageal Cancer	+	CLL, Melanoma, NHL
277 (LLPPLESLATV; listed as Homo sapiens) [compound 277]	SCLC, Leukemia, Melanoma	+	CLL, BRCA, Urinary Bladder Cancer, HNSCC
278 (QLLDVVLTI; listed as Homo sapiens) [compound 278]		+	HNSCC
